Results on three substances are retold here after publication PMC5040591.

By UniProt entry, the sequences of proteins in these tests, tags left out.
UniProt Q6EVK6: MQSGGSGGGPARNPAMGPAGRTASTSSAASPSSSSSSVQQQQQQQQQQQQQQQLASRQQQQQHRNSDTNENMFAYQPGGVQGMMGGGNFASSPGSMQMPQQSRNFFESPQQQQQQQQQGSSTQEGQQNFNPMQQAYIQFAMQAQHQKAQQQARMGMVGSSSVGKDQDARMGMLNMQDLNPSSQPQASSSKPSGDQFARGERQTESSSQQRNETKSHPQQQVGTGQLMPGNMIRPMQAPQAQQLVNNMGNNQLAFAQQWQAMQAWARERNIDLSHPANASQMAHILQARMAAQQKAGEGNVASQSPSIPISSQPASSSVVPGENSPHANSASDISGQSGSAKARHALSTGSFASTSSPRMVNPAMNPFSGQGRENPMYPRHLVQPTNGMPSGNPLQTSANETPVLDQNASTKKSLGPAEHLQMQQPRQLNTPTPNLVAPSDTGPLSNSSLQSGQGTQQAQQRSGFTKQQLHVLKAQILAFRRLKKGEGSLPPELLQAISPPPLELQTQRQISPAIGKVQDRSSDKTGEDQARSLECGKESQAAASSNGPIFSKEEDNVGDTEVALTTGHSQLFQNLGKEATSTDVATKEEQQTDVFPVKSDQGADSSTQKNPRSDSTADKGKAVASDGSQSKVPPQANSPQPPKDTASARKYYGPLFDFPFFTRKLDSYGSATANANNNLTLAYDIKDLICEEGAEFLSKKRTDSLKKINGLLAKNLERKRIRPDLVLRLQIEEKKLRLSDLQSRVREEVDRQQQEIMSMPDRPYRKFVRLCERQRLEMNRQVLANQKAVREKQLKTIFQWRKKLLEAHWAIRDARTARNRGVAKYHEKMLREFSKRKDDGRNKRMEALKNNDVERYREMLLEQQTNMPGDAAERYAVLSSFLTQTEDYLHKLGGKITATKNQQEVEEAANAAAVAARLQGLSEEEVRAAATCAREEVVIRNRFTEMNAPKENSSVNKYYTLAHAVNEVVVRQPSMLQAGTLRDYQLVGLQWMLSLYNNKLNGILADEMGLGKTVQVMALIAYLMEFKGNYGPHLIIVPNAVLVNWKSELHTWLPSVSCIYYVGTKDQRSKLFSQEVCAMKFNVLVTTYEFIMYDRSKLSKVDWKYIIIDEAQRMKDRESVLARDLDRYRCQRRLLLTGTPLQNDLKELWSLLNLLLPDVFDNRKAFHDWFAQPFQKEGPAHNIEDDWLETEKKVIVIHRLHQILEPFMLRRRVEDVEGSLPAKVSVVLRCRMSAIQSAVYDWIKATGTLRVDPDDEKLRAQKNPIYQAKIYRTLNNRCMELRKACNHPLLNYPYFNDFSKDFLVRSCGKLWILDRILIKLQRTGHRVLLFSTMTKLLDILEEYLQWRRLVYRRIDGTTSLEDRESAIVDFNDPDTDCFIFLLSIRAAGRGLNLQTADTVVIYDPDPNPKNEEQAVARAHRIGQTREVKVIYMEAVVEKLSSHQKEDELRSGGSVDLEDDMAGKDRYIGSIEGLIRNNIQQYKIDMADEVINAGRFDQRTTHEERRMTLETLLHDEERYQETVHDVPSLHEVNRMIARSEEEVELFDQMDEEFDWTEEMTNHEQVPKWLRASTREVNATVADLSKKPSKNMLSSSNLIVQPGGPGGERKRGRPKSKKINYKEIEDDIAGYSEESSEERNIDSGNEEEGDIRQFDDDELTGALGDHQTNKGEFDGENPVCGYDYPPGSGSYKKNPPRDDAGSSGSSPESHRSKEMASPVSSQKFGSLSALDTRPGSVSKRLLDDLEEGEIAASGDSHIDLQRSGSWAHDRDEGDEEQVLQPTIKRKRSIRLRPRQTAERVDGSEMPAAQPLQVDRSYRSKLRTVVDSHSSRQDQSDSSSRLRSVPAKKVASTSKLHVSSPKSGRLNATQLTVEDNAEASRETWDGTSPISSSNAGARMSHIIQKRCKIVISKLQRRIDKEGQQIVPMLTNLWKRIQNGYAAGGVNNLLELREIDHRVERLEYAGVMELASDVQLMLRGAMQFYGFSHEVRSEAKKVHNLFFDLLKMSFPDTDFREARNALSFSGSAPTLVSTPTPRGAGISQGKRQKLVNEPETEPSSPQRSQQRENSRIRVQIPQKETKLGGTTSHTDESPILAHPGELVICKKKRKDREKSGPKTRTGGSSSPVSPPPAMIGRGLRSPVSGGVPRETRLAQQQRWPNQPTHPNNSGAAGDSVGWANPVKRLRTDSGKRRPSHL
UniProt Q8RWY3: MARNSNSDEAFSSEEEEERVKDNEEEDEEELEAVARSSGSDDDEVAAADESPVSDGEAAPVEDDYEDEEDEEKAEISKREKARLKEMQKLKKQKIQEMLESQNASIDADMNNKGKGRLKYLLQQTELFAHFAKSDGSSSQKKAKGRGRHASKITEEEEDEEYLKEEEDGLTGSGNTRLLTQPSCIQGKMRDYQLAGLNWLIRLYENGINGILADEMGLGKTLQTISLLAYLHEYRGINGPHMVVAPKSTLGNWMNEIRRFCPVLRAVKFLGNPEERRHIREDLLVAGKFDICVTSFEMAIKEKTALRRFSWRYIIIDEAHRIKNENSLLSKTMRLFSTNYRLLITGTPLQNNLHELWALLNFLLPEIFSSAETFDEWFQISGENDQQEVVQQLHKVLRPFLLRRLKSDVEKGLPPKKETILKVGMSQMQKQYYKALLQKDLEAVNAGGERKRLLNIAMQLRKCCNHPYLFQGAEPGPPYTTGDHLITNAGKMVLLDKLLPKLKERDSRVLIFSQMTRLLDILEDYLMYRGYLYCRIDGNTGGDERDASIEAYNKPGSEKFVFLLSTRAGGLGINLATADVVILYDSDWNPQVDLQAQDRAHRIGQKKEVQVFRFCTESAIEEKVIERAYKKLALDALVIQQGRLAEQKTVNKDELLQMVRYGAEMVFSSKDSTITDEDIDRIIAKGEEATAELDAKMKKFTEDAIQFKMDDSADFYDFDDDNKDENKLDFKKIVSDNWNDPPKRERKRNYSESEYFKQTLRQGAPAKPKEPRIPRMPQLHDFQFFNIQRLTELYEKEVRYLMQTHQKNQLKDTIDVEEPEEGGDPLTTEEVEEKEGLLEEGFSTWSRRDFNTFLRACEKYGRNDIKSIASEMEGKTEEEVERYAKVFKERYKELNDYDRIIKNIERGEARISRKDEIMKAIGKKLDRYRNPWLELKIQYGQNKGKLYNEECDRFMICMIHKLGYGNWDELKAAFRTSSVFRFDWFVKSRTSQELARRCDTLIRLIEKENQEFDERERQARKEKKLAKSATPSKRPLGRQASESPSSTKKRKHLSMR
UniProt F4JY24: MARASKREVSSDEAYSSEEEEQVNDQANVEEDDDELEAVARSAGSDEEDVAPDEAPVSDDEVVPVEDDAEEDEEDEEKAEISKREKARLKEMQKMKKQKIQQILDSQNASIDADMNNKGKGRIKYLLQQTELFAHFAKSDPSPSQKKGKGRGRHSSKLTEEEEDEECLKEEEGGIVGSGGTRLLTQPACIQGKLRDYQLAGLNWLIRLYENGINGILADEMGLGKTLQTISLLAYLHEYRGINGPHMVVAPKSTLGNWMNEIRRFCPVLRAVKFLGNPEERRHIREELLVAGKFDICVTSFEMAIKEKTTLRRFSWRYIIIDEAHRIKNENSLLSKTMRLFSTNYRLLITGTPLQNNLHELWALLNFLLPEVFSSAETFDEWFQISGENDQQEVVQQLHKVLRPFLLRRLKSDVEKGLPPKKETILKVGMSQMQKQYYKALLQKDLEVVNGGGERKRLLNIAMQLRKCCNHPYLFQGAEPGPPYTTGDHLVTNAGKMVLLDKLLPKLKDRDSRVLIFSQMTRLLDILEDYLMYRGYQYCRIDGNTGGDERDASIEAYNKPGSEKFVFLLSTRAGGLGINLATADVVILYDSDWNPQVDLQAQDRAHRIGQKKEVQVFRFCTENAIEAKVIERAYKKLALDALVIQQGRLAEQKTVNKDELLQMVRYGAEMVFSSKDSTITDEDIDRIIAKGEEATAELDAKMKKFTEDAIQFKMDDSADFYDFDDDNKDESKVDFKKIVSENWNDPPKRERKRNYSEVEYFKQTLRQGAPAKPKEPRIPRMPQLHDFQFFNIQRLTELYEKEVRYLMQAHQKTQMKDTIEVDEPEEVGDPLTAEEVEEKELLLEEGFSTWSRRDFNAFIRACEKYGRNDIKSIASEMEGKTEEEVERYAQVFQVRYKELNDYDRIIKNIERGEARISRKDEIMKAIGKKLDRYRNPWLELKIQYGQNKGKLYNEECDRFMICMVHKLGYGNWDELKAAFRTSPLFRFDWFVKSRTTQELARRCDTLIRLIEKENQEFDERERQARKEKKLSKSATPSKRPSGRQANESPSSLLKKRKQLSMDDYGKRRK

These are yes or no findings as the source states them, for the method shown. Binding seen in cells or lysates may run through a third protein. Some results given as binding are weak or reduced against the parent protein; the word gives no strength.

The target in the experiment is T1, YFPN-FGT1 (A. thaliana) (UniProt F4IF36).
T1 sequence: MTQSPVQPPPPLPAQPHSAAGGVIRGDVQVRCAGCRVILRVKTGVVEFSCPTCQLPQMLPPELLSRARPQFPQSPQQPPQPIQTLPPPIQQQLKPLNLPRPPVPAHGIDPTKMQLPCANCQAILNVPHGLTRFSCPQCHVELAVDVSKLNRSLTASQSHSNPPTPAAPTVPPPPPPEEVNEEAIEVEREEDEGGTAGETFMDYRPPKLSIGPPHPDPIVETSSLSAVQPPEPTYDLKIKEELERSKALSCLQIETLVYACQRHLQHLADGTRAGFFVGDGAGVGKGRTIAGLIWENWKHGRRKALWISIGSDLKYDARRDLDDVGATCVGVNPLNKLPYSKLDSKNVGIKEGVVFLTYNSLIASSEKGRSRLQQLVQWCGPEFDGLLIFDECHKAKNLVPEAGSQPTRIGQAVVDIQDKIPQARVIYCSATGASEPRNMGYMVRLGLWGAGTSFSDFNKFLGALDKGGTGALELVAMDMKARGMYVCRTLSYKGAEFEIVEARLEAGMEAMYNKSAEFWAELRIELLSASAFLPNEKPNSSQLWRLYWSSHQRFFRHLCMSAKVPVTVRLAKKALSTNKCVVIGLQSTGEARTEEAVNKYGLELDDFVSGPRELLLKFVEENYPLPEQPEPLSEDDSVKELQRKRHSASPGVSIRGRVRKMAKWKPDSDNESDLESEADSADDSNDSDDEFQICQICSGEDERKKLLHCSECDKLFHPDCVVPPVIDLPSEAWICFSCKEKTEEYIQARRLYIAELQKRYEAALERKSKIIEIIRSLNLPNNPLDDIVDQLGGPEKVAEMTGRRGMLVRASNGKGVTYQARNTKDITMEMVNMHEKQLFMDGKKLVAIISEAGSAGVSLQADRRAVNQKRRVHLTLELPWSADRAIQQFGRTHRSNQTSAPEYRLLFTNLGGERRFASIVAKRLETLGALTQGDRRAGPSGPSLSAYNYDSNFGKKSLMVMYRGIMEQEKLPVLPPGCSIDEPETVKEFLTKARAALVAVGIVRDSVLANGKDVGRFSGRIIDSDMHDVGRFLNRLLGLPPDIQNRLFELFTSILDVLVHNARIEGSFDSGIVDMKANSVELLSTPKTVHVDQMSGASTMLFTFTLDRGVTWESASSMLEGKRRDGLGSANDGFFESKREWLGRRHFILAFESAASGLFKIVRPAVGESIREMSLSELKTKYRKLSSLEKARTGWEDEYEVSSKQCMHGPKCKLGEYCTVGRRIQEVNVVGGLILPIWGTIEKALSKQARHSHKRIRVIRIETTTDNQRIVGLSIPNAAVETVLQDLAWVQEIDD
The experiment is described as follows: split reporter; BiFC: YFPN and YFPC fusion constructs co-expressed in Nicotiana benthamiana leaves by A. tumefaciens infiltration; YFP fluorescence analysed 2 d after infiltration by confocal microscopy.
On to YFPC-BRM (from UniProt Q6EVK6 1-2193), for which the binding entry is listed as “binds”.

With YFPC-CHR11 (from UniProt Q8RWY3 1-1056), the binding entry is “binds”.

Consider YFPC-CHR17 (from UniProt F4JY24 1-1069), for which the binding result is on record as “binds”.
